Test results from the supplement of paper PMC10849652.
The other results are listed elsewhere or left out.

Sequences of proteins named here, by UniProt entry; tags and fusion partners are left off. A change or cut given only in a name is not applied to a line headed by its entry.
UniProt Q5TZA2: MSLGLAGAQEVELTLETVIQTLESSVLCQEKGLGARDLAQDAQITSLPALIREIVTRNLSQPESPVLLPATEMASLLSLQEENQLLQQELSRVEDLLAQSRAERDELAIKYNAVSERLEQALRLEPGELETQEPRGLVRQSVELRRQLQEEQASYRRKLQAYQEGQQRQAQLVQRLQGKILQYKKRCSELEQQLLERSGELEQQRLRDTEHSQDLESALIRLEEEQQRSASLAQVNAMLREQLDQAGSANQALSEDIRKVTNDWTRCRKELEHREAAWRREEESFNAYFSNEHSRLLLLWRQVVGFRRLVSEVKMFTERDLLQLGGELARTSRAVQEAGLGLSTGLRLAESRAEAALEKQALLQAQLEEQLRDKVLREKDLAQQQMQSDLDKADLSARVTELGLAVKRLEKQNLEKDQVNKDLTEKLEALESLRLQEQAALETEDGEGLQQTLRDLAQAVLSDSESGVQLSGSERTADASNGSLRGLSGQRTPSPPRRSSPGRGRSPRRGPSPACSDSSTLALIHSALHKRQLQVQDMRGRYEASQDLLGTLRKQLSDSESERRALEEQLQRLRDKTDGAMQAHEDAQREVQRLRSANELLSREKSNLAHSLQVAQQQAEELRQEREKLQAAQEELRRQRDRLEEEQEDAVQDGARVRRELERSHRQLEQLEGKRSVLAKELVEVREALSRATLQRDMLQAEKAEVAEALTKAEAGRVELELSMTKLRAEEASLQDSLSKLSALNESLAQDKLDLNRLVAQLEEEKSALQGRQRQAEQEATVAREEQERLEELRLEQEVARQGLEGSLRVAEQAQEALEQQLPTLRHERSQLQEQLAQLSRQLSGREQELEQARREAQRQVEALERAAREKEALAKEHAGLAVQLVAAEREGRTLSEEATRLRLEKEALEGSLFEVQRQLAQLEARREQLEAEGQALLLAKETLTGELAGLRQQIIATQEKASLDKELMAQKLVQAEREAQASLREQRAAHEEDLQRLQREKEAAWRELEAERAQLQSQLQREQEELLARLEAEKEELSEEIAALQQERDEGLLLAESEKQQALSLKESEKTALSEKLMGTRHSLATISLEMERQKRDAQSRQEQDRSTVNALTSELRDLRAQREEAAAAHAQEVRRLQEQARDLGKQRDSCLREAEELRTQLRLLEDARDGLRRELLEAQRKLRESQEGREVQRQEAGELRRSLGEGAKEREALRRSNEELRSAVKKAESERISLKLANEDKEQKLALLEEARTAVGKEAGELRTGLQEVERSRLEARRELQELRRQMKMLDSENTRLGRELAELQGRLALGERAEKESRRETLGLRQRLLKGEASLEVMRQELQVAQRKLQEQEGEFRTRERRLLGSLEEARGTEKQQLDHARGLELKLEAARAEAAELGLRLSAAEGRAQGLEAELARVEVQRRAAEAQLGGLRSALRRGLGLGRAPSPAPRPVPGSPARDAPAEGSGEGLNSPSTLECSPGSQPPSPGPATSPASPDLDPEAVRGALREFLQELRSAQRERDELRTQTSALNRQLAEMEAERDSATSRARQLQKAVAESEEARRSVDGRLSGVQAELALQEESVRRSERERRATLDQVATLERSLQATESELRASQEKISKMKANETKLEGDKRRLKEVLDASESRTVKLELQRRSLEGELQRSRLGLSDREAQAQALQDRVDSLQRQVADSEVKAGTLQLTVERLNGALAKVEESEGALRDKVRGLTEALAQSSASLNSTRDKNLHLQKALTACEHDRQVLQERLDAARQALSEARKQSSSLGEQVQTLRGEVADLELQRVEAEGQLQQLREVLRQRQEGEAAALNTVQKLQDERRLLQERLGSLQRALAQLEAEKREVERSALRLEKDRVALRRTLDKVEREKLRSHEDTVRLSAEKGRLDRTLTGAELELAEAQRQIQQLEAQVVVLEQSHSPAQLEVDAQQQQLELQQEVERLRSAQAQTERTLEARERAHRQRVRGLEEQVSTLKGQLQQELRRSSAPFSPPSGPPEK
UniProt P48729: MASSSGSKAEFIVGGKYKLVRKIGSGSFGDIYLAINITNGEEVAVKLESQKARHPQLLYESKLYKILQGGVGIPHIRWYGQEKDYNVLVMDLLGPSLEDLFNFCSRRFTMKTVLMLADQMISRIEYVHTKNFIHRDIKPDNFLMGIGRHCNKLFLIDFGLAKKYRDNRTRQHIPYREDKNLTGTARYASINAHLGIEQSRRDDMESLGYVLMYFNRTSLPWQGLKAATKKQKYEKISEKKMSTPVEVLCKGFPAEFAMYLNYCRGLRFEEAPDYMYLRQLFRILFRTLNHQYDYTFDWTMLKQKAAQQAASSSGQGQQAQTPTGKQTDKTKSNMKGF
UniProt P67870, whole entry, looked up: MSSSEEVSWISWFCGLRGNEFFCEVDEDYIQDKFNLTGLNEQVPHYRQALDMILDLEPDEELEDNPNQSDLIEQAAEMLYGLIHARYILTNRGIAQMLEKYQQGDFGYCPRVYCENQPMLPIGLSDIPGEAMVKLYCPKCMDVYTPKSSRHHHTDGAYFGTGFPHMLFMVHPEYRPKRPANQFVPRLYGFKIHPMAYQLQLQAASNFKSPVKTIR
UniProt P39880: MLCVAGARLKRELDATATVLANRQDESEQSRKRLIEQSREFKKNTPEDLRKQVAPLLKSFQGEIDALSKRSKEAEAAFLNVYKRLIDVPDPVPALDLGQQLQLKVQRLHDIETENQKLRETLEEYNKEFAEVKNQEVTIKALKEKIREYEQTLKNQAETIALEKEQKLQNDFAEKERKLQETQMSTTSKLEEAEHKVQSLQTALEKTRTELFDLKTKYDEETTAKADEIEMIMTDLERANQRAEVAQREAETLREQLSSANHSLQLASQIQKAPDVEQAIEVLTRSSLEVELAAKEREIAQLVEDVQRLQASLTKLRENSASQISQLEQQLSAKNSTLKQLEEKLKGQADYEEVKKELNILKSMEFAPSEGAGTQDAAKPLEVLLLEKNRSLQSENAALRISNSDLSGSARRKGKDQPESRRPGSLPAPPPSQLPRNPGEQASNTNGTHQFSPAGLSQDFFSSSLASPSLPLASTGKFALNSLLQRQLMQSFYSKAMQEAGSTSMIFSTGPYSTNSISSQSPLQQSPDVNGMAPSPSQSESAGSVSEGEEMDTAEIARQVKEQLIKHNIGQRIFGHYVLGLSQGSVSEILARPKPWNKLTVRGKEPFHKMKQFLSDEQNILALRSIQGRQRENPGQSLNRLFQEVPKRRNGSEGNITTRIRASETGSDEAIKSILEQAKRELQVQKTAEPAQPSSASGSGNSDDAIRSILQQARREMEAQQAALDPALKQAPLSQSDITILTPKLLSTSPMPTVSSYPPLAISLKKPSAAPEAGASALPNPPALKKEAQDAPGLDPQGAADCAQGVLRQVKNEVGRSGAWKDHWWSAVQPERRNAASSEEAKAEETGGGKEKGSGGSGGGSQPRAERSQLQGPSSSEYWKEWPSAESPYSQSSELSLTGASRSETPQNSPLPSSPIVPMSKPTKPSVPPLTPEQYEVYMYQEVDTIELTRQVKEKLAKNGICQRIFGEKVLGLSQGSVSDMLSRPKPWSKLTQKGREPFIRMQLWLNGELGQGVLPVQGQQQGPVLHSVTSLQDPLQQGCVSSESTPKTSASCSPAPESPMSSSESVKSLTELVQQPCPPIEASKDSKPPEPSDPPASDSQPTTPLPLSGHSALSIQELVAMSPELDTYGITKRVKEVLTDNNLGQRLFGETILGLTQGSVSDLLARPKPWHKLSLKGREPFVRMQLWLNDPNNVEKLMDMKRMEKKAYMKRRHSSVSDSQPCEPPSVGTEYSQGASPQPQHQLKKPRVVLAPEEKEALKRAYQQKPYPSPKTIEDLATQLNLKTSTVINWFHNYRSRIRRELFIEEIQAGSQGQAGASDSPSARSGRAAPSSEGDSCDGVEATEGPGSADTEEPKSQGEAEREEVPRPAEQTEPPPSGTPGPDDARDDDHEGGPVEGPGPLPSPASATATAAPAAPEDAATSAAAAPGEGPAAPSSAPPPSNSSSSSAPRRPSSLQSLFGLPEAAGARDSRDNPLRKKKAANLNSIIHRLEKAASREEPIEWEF
UniProt Q8NBI2: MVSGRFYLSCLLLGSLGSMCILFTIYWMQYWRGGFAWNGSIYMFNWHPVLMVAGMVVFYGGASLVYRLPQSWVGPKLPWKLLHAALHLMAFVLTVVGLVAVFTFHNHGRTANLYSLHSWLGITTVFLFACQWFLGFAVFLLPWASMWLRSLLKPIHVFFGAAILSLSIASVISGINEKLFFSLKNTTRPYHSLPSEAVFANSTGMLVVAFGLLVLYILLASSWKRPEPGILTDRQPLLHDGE
UniProt Q69YN2: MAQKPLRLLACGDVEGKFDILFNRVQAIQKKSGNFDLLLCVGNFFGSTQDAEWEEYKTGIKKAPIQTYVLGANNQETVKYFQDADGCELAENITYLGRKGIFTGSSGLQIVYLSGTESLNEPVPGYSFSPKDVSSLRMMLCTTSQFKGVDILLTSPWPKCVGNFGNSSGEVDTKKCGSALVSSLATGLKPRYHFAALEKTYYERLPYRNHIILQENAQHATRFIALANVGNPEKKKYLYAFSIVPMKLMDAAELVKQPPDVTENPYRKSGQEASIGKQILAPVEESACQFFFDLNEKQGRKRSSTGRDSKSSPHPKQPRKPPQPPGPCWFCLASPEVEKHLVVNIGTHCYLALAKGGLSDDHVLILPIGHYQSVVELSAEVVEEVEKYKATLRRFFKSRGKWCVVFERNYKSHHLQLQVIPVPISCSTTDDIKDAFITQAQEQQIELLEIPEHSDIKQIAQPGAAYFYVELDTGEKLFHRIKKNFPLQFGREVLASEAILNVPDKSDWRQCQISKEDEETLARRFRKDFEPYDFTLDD
UniProt E9PJD7, whole entry, looked up: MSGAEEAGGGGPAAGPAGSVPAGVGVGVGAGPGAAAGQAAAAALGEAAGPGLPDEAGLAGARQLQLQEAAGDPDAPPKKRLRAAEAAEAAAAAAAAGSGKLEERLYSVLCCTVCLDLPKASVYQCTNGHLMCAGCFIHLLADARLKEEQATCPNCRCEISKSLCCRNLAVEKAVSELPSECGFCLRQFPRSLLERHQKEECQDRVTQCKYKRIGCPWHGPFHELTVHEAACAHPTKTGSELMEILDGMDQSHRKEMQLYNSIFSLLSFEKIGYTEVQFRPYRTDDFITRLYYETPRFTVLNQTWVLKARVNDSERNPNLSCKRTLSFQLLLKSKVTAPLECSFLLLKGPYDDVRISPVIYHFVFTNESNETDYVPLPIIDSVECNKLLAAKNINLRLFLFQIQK
UniProt P78368: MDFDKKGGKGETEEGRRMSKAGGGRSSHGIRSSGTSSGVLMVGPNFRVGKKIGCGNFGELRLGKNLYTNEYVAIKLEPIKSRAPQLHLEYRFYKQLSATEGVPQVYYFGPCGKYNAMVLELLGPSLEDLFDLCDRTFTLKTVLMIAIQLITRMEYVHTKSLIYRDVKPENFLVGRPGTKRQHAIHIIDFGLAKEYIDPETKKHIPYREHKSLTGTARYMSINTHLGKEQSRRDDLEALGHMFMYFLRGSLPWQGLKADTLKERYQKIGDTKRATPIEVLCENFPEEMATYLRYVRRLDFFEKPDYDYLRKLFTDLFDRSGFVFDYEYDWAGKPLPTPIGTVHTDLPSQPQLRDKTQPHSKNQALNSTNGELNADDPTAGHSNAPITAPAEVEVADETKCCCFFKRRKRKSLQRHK
UniProt Q01459: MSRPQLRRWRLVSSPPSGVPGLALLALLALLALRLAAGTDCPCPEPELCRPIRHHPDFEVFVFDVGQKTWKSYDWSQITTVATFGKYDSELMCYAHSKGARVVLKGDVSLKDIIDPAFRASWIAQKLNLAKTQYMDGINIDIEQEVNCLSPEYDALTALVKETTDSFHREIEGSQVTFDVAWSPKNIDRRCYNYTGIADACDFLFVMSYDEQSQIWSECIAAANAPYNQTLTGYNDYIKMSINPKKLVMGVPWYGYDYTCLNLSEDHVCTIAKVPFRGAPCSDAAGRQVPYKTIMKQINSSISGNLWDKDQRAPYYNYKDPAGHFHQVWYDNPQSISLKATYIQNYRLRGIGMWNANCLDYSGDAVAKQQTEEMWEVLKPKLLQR
UniProt P41240: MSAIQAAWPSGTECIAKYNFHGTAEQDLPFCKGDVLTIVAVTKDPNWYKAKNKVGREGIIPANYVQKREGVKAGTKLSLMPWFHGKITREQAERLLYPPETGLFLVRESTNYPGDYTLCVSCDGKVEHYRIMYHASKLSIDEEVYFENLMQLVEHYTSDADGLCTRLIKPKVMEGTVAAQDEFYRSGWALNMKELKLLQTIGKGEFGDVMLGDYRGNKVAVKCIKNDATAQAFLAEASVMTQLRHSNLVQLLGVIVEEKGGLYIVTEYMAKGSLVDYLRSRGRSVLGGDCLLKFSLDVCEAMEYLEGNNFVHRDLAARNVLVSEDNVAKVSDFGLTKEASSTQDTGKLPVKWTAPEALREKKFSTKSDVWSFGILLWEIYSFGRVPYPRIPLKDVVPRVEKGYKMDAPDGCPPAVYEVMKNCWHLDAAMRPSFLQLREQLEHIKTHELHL

How the values were obtained:
Test in all cases: log2 fold change, soluble protein after heating vs DMSO (PISA); higher = thermal stabilisation; K562 lysate, 10 uM; active = over 0.2 and 3.5 SD of the protein, either way, in both replicates (recomputed)
erlotinib = compound: C#Cc1cccc(Nc2ncnc3cc(OCCOC)c(OCCOC)cc23)c1 [erlotinib]
How it was run: (§1)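 To prepare the extract, K562 pellets were dounce-homogenised in PBS pH 7.4 with 1 mM MgCl2, giving crude material at 1 mg/mL protein. This was treated with 10 μM compound for 30 min, then heated in aliquots for 3 min over 48°C-58°C before pooling and addition of NP-40 to 0.5% at 4°C. Centrifugation at 21,000xg for 90 min left soluble protein in the supernatant, which TMTpro 16plex LC-MS/MS quantified with equalised channel sums. Results are log-two fold changes in thermal stability compared with solvent controls, from duplicates.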

[1] = compound: C/C(=N\NC(=O)C1=CC(=CC=C1)S(=O)(=O)N2CCOCC2)/C3=C(C=CC(=C3)Cl)O
How it was run: as §1

[2] = compound: C1=CC(=CC=C1C2=NC3=C(N2)C=C(C=C3)C(=O)N)OC4=CC=C(C=C4)Cl
How it was run: as §1

[3] = compound: C1=CC2=C(C=CC(=C2)/C=C\3/C(=O)NC(=NCC4=CC=CS4)S3)N=C1
How it was run: as §1

[4] = compound: C1=CC2=NC=CN=C2C=C1/C=C/3\C(=O)NC(=O)S3
How it was run: as §1

[5] = compound: C1=CC=C(C=C1)C2=NC(=C(N2)C3=CC=NC=C3)C4=CC(=C(C=C4)Cl)O
How it was run: as §1

[6] = compound: C1=CC=C2C(=C1)C3=NNC4=CC=CC(=C43)C2=O
How it was run: as §1

[7] = compound: C1CCN(C1)C(=O)NC2=CC=CC(=C2)NC3=NC=C(C(=N3)NCCC4=CN=CN4)Br
How it was run: as §1

[8] = compound: C1CN(CCC1(CC2=CC=C(C=C2)Cl)N)C3=NC=NC4=C3C=CN4
How it was run: as §1

IRAK-1-4 Inhibitor I = compound: C1COCCN1CCN2C3=CC=CC=C3N=C2NC(=O)C4=CC(=CC=C4)[N+](=O)[O-] [IRAK-1-4 Inhibitor I]
How it was run: as §1

ibrutinib = compound: C=CC(=O)N1CCC[C@@H](n2nc(-c3ccc(Oc4ccccc4)cc3)c3c(N)ncnc32)C1 [ibrutinib]
How it was run: as §1

[9] = compound: CC(=O)c1cnc2ccc(-c3cc(Cl)c(O)c(Cl)c3)nc2c1N[C@H]1CC[C@H](CN(C)C)CC1
How it was run: as §1

ralimetinib = compound: CC(C)(C)Cn1c(N)nc2ccc(-c3[nH]c(C(C)(C)C)nc3-c3ccc(F)cc3)nc21 [ralimetinib]
How it was run: as §1

[10] = compound: CC(C)(O)CC(=O)NCCn1ccc2ncnc(Nc3ccc(Oc4cccc(C(F)(F)F)c4)c(Cl)c3)c21
How it was run: as §1

[11] = compound: CC(C)C1=C2N=C(C=C(N2N=C1)NCC3=CC=CC=C3)NCCCCCCN
How it was run: as §1

[12] = compound: CC1=C(C(CC(=O)N1)C2=CC=C(C=C2)C(F)(F)F)C(=O)NC3=C(C=C4C(=C3)C=NN4)F
How it was run: as §1

[13] = compound: CC1=C(C2=C(C=C1)C(=O)C3=CC=CC=C3N2CCCN)C
How it was run: as §1

[14] = compound: CC1=C(C=C(C=C1)NC(=O)C2=CC(=CC=C2)C(C)(C)C#N)NC3=CC4=C(C=C3)N=CN(C4=O)C
How it was run: as §1

[15] = compound: CC1=C(C=C(C=C1)NC(=O)C2=CC(=CC=C2)N(C)C)NC(=O)C3=CC=C(C=C3)O
How it was run: as §1

[16] = compound: CC1=CC=C(C=C1)SC2=C3C=C(SC3=CN=C2)C(=O)N
How it was run: as §1

Measured: log2 fold change

CROCC (UniProt Q5TZA2)
inactive: erlotinib -0.046 | [1] -0.019 | [2] -0.11 | [3] -0.116 | [4] 0.047 | [5] 0.159 | [6] -0.002 | [7] 0.002 | [8] 0.008 | IRAK-1-4 Inhibitor I 0.047 | ibrutinib -0.013 | [9] 0.099 | ralimetinib 0.006 | [10] -0.03 | [11] -0.083 | [12] -0.064 | [13] -0.075 | [14] 0.176 | [15] -0.057 | [16] 0.019

CSNK1A1 (UniProt P48729)
inactive: erlotinib -0.027 | [1] -0.106 | [2] 0.093 | [3] 0.028 | [4] 0.013 | [5] 0.217 | [7] -0.082 | [8] -0.032 | IRAK-1-4 Inhibitor I -0.038 | ibrutinib -0.098 | [9] 0.148 | ralimetinib 0.088 | [10] -0.002 | [11] -0.035 | [12] -0.019 | [13] -0.002 | [14] -0.029 | [15] 0 | [16] 0.003
active: [6] 0.406

CWC27 (UniProt Q6UX04)
inactive: erlotinib -0.001 | [1] 0.001 | [2] 0.001 | [3] 0.019 | [4] -0.005 | [5] -0.006 | [6] -0.015 | [7] -0.015 | [8] 0.013 | IRAK-1-4 Inhibitor I 0.017 | ibrutinib 0.035 | [9] -0.031 | ralimetinib 0.011 | [10] -0.017 | [11] 0.016 | [12] -0.035 | [13] 0.014 | [14] -0.005 | [15] -0.02 | [16] -0.002

CTTN isoform 2 (UniProt Q14247)
inactive: erlotinib -0.03 | [1] 0.026 | [2] 0.007 | [3] 0.02 | [4] -0.018 | [5] 0.037 | [6] 0.026 | [7] 0.003 | [8] 0.002 | IRAK-1-4 Inhibitor I 0.016 | ibrutinib 0.039 | [9] -0.004 | ralimetinib 0.011 | [10] 0.021 | [11] -0.024 | [12] -0.005 | [13] 0 | [14] -0.011 | [15] 0.01 | [16] -0.008

CSNK2B (UniProt P67870)
active: [4] 0.33 | [9] 0.408
inactive: erlotinib 0.045 | [1] -0.107 | [2] -0.039 | [3] 0.151 | [5] -0.012 | [6] 0.198 | [7] 0.145 | [8] 0.041 | IRAK-1-4 Inhibitor I 0.021 | ibrutinib -0.004 | ralimetinib 0.003 | [10] -0.013 | [11] 0 | [12] -0.054 | [13] 0.114 | [14] -0.004 | [15] -0.015 | [16] -0.016

CRBN (UniProt Q96SW2)
inactive: erlotinib 0.041 | [1] -0.012 | [2] 0.037 | [3] 0.061 | [4] -0.055 | [5] -0.061 | [6] -0.095 | [7] -0.02 | [8] -0.004 | IRAK-1-4 Inhibitor I 0.017 | ibrutinib -0.015 | [9] -0.006 | ralimetinib 0.004 | [10] -0.045 | [11] -0.007 | [12] 0.01 | [13] -0.072 | [14] -0.006 | [15] -0.001 | [16] -0.022

CUX1 isoform 3 (UniProt P39880)
inactive: erlotinib -0.015 | [1] -0.017 | [2] -0.007 | [3] 0.03 | [4] -0.049 | [5] -0.039 | [6] 0.003 | [7] -0.004 | [8] 0.07 | IRAK-1-4 Inhibitor I 0.014 | ibrutinib 0.073 | [9] 0.002 | ralimetinib 0.003 | [10] -0.061 | [11] 0.017 | [12] -0.022 | [13] 0.003 | [14] -0.051 | [15] 0.012 | [16] 0.005

CTU2 (UniProt Q2VPK5)
inactive: erlotinib -0.002 | [1] -0.007 | [2] 0.008 | [3] -0.012 | [4] -0.013 | [5] -0.011 | [6] 0.035 | [7] 0 | [8] -0.003 | IRAK-1-4 Inhibitor I -0.02 | ibrutinib 0.041 | [9] 0.003 | ralimetinib 0.055 | [10] 0.019 | [11] -0.004 | [12] 0.031 | [13] 0.012 | [14] -0.04 | [15] -0.012 | [16] 0.007

CSRP3 (UniProt P50461)
inactive: erlotinib 0.105 | [1] -0.087 | [2] 0.102 | [3] 0.016 | [4] -0.074 | [5] 0.1 | [6] 0.01 | [7] -0.011 | [8] 0.009 | IRAK-1-4 Inhibitor I -0.133 | ibrutinib 0.096 | [9] -0.047 | ralimetinib 0.034 | [10] -0.042 | [11] -0.026 | [12] -0.039 | [13] 0.016 | [14] 0.146 | [15] -0.042 | [16] 0.004

CYB561A3 isoform 2 (UniProt Q8NBI2)
inactive: erlotinib 0.117 | [1] 0.053 | [2] 0.117 | [3] -0.014 | [4] 0.03 | [5] -0.165 | [6] -0.153 | [7] 0.062 | [8] 0.055 | IRAK-1-4 Inhibitor I -0.001 | ibrutinib -0.002 | [9] -0.033 | ralimetinib 0.055 | [10] 0.166 | [11] -0.011 | [12] 0.051 | [13] -0.032 | [14] 0.14 | [15] 0.028 | [16] -0.006

CWF19L1 (UniProt Q69YN2)
inactive: erlotinib -0.025 | [1] -0.04 | [2] 0.015 | [3] 0.002 | [4] 0.006 | [5] -0.017 | [6] -0.015 | [7] -0.018 | [8] 0.05 | IRAK-1-4 Inhibitor I -0.022 | ibrutinib 0 | [9] -0.026 | ralimetinib 0 | [10] 0.014 | [11] 0.019 | [12] -0.021 | [13] 0.037 | [14] -0.031 | [15] -0.001 | [16] -0.005

CYHR1 (UniProt E9PJD7)
inactive: erlotinib 0.04 | [1] 0.109 | [2] 0.066 | [3] -0.035 | [4] 0.059 | [5] 0 | [6] 0.03 | [7] -0.06 | [8] 0.019 | IRAK-1-4 Inhibitor I 0.029 | ibrutinib -0.029 | [9] 0.028 | ralimetinib 0.005 | [10] -0.062 | [11] 0.015 | [12] 0.016 | [13] 0.02 | [14] 0.091 | [15] -0.023 | [16] 0.052

Fetched one by one from the list above (2):
CSNK2B (UniProt P67870)
active: [4] 0.33 | [9] 0.408
inactive: erlotinib 0.045 | [1] -0.107 | [2] -0.039 | [3] 0.151 | [5] -0.012 | [6] 0.198 | [7] 0.145 | [8] 0.041 | IRAK-1-4 Inhibitor I 0.021 | ibrutinib -0.004 | ralimetinib 0.003 | [10] -0.013 | [11] 0 | [12] -0.054 | [13] 0.114 | [14] -0.004 | [15] -0.015 | [16] -0.016

CRBN (UniProt Q96SW2)
inactive: erlotinib 0.041 | [1] -0.012 | [2] 0.037 | [3] 0.061 | [4] -0.055 | [5] -0.061 | [6] -0.095 | [7] -0.02 | [8] -0.004 | IRAK-1-4 Inhibitor I 0.017 | ibrutinib -0.015 | [9] -0.006 | ralimetinib 0.004 | [10] -0.045 | [11] -0.007 | [12] 0.01 | [13] -0.072 | [14] -0.006 | [15] -0.001 | [16] -0.022

Following part.

CSNK1G2 (UniProt P78368)
inactive: erlotinib -0.111 | [1] -0.053 | [2] 0.141 | [3] 0.163 | [4] 0.158 | [5] -0.002 | [6] 0.322 | [7] 0.083 | [8] 0.056 | IRAK-1-4 Inhibitor I -0.115 | ibrutinib -0.007 | [9] 0.263 | ralimetinib 0.06 | [10] -0.116 | [11] -0.039 | [12] -0.042 | [13] 0.034 | [14] -0.032 | [15] -0.092 | [16] -0.003

CTBS (UniProt Q01459)
inactive: erlotinib 0.024 | [1] -0.073 | [2] 0.04 | [3] 0.013 | [4] 0.005 | [5] 0.006 | [6] 0.048 | [7] -0.011 | [8] -0.007 | IRAK-1-4 Inhibitor I 0.027 | ibrutinib 0.078 | [9] -0.023 | ralimetinib 0.011 | [10] -0.024 | [11] 0.007 | [12] 0.033 | [13] -0.016 | [14] 0.019 | [15] -0.039 | [16] -0.007

CSK (UniProt P41240)
inactive: erlotinib 0.045 | [1] -0.025 | [2] -0.004 | [3] -0.028 | [4] -0.035 | [5] 0.031 | [6] 0.106 | [7] 0.107 | [8] 0.033 | IRAK-1-4 Inhibitor I 0.053 | [9] 0.242 | ralimetinib 0 | [10] 0.181 | [11] 0 | [12] -0.086 | [13] -0.04 | [15] -0.015 | [16] -0.054
active: ibrutinib 0.891 | [14] 0.626

CTNND1 isoform 3 (UniProt O60716)
inactive: erlotinib -0.002 | [1] -0.039 | [2] -0.024 | [3] -0.045 | [4] 0.003 | [5] 0.087 | [6] -0.093 | [7] 0.009 | [8] 0.022 | IRAK-1-4 Inhibitor I 0.004 | ibrutinib 0.01 | [9] 0.001 | ralimetinib -0.058 | [10] -0.028 | [11] 0 | [12] 0.006 | [13] -0.036 | [14] -0.016 | [15] 0.032 | [16] -0.025
